Measurements from PMC9243006.
Results are given in words; binding and its absence hold for the method and conditions named. Some results given as binding are weak or reduced against the parent protein; the word gives no strength. For some assays here: Where a sequence is shown, tags or fusion partners need not be part of it.

T1: purified complement factor I (UniProt Q61129)
T1 sequence: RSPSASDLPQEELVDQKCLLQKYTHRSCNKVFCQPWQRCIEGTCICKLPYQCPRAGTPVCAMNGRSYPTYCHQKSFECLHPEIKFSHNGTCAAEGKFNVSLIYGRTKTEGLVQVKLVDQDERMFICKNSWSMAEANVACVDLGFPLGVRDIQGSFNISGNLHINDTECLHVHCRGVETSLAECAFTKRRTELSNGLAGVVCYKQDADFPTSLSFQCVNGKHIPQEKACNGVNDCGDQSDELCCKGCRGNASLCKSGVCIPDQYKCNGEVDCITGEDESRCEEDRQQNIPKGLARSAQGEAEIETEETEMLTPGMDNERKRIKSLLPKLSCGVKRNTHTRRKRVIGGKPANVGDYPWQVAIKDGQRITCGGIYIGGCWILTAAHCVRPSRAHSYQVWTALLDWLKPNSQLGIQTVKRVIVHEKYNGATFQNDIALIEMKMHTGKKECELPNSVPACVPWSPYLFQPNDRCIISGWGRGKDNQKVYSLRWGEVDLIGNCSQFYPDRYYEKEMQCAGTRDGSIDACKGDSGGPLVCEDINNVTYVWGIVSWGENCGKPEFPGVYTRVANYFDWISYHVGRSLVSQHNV

T2: Flag-tagged mouse CD46 (mCD46) expressed in HEK293T cells (mouse) (UniProt O88174)
T2 sequence: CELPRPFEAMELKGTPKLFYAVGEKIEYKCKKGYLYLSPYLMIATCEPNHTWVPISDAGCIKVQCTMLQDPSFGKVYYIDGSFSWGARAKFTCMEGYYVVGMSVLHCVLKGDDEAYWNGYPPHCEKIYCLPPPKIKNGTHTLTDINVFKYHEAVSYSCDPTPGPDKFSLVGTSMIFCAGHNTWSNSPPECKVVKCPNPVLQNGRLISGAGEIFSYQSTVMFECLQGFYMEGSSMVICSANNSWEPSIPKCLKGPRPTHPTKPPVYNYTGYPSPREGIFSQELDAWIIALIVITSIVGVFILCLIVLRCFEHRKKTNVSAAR

B1: purified complement factor I (protein, UniProt Q61129 19-603)
chain: T1 sequence

Experiments:
[1] = target: T1, purified complement factor I; experiment: ELISA; CFI (20 µg/ml) or C3b (20 µg/ml) coated overnight at 4 °C; rmCD46 or mutants (40 µg/ml) at 37 °C for 2 h; anti-His detection; both purified
[2] = target: T2, Flag-tagged mouse CD46 (mCD46) expressed in HEK293T cells (mouse); experiment: fluorescence of antibody-stained cells (microplate reader); HEK293T cells expressing Flag-tagged mCD46 or mutants incubated with CFI (20 µg/ml) or C3b (20 µg/ml) at 37 °C for 1 h, fixed; antibody to C3b or CFI, FITC-labeled secondary antibody; only the binder purified

Row | Molecule | binding [1] | binding [2]
1 | recombinant mCD46 (rmCD46) (from UniProt O88174 43-328) (domain or fragment) | binds | 
2 | B1 |  | binds
